{
  "source": "paper PMC13157976",
  "key": {"[1]": {"molecular_target": "His-Halo-tagged MBD8, full-length (A. thaliana)", "experiment": "pull-down; His-Halo-MBD8 and LDL2-Strep co-expressed in E. coli; lysate on Ni-NTA agarose, 4°C, 1 h; 50 mM Tris-HCl pH 7.5, 500 mM NaCl; eluted with 300 mM imidazole; blots with anti-Strep and anti-Halo"}, "[2]": {"molecular_target": "MBD8 ΔC-terminal (the N-terminal 173 amino acids of MBD8) (A. thaliana)", "experiment": "pull-down; His-Halo-MBD8 and LDL2-Strep co-expressed in E. coli; lysate on Ni-NTA agarose, 4°C, 1 h; 50 mM Tris-HCl pH 7.5, 500 mM NaCl; eluted with 300 mM imidazole; blots with anti-Strep and anti-Halo"}},
  "note": "These are yes or no findings as the source states them, for the method shown. In cells and extracts the contact can be indirect. Binding can be weak; no strength is given. Where a sequence is shown, tags or fusion partners need not be part of it.",
  "data": [
    {"binder": "Strep-tagged LDL2 (enzyme, UniProt Q9LID0 1-746) MNSPASDETAPRRNRRKVSRKNYDENAMDELIEKQLGGKAKKKYRTKQDLEKETETEALIALSVGFPIDELLEEEIRAGVVRELGGKEQNDYIVVRNHIVARWRGNVGIWLLKDQIRETVSSDFEHLISAAYDFLLFNGYINFGVSPLFAPYIPEEGTEGSVIVVGAGLAGLAAARQLLSFGFKVLVLEGRSRPGGRVYTQKMGGKDRFAAVELGGSVITGLHANPLGVLARQLSIPLHKVRDNCPLYNSEGVLVDKVADSNVEFGFNKLLDKVTEVREMMEGAAKKISLGEVLETLRVLYGVAKDSEERKLFDWHLANLEYANAGCLSNLSAAYWDQDDPYEMGGDHCFLAGGNWRLINALAEGLPIIYGKSVDTIKYGDGGVEVISGSQIFQADMILCTVPLGVLKKRSIKFEPELPRRKQAAIDRLGFGLLNKVAMLFPSVFWGDELDTFGCLNESSINRGEFFLFYAYHTVSGGPALVALVAGEAAQRFECTEPSVLLHRVLKKLRGIYGPKGVVVPDPIQTVCTRWGSDPLSYGSYSHVRVGSSGVDYDILAESVSNRLFFAGEATTRQHPATMHGAYLSGLREASKILHVANYLRSNLKKPVQRYSGVNINVLEDMFKRPDIAIGKLSFVFNPLTDDPKSFGLVRVCFDNFEEDPTNRLQLYTILSREQANKIKELDENSNESKLSCLMNTLGLKLMGANSVLDTGGALISVIANARRGRSRSHVVAGQCNLPLNPLHFN", "values": [
      {"measurement": "binding", "setting": "[1]", "result": "binds"},
      {"measurement": "binding", "setting": "[2]", "result": "binds"}
    ]}
  ]
}
